In patent publication US20180265594A1:
Numbering of substitutions follows the chain as printed. No constants are given. Whether binding was seen depends on the method and setting. Some binding calls cover weakened binding; strength is not graded here. Blank lines part the entries; values can stand above or below the binder they belong to.

Target: T1, human VpreB1 (human) (UniProt P12018)
T1 sequence: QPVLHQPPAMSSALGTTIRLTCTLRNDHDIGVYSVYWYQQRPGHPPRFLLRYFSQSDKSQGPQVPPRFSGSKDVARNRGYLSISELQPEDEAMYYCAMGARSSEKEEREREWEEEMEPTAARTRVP
Assay: ELISA of phage Fab clones against human VpreB1

binding: binds
B1: 2463VpreBlam5B05 (Fab, V domains shown)
VH: QVQLVQSGAEVKKPGSSVKVSCKASGGTFTAYAINWVRQAPGQGLEWMGGINVGFGGANYAQKFQGRVTITADKSTSTAYMELSSLRSEDTAVYYCARDDYWTSVYWGQGTLVTVSS
VL: DIQMTQSPSSLSASVGDRVTITCRASQGISNYLAWFQQKPGKAPKSLIYAASSLQSGVPSRFSGSGSGTDFTLTISSLQPEDFATYYCQQYNSYPLTFGGGTKVEIK

binding: binds
B2: 2463VpreBlam5D07 (Fab, V domains shown)
VH: QVQLVQSGAEVKKPGASVKVSCKASGYTFSGYGMHWVRQAPGQGLEWMGWINPISGTATYAQKFQGRVTMTRDTSISTAYMELSRLRSDDTAVYYCAKDLIGWISHSYNGDYWGQGTLVTVSS
VL: B1 VL with S53T, Q55E

binding: binds
B3: 2462VpreBlam5E08 (Fab, V domains shown)
VH: EVQLLESGGGLVQPGGSLRLSCAASGFTFSSYGMNWVRQAPGKGLEWVATINYSGTSKYYADSVKGRFTISRDNSKNTLYLQMNSLRAEDTAVYYCARDRYKSYTYALDYWGQGTLVTVSS
VL: SSELTQDPAVSVALGQTVRITCQGDSLRKKYVYWYQQKPGQAPVLVIYKDNNRPSGIPDRFSGSSSGNTASLTITGAQAEDEADYYCNSWDSSSAHYVFGGGTKLTVL

binding: binds
B4: 2462VpreBlam5D05 (Fab, V domains shown)
VH: QVQLVQSGAEVKKPGSSVKVSCKASGGTFSNYAISWVRQAPGQGLEWMGWISPFSGGTNYAQKFQGRVTITADKSTSTAYMELSSLRSEDTAVYYCARGQWWYGDAFDYWGQGTLVTVSS
VL: QSALTQPASVSGSPGQSITISCTGTSSDVGGYNYVSWYQQHPGKAPKLIIYDVTKRPSGVSNRFSGSKSGNTASLTISGLQAEDEADYYCCSYTGTSNFVFGGGTKLTVL

binding: binds
B5: 2463VpreBlam5C04 (Fab, V domains shown)
VH: QVQLVQSGAEVKKPGASVKVSCKASGYTFSSYGMSWVRQAPGQGLEWMGWINANSGGTSYAQKFQGRVTMTRDTSISTAYMELSRLRSDDTAVYYCARDDGGAYVYWGQGTLVTVSS
VL: B4 VL with K55N, C91S, T96S, N98S, F99Y

binding: binds
B6: 2462VpreBlam5C05 (Fab, V domains shown)
VH: EVQLVESGGGLVKPGGSLRLSCAASGFTFSDYGMSWVRQAPGKGLEWVSGISWNGGTTNYADSVKGRFTISRDNAKNSLYLQMNSLRAEDTAVYYCARSGGAFYLSGLDYWGQGTLVTVSS
VL: B4 VL with G31S, I49M, D52E, K55N, C91S, T94A, G95S, T96S, F99L

binding: binds
B7: 2460VpreBlam5B04 (Fab, V domains shown)
VH: EVQLVESGGGLVKPGGSLRLSCAASGFTFSNFEMNWVRQAPGKGLEWVSGISSNGRYINYADSVKGRFTISRDNAKNSLYLQMNSLRAEDTAVYYCARVVDFDQDYNGFDYWGQGTLVTVSS
VL: DIQLTQSPSFLSASVGDRVTITCRASQGISTDLNWYQQKPGKAPKLLIYAASNLESGVPSRFSGSGSGTEFTLTISSLQPEDFATYYCQQSYNWPYTFGGGTKVEIK
